Results deposited as PubChem BioAssay AID1224828 (NIAID, 2016)
Assay: 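Knock-downs that increase or decrease LPS-induced p65 nuclear translocation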 (primary screen). Cells: mouse RAW264.7 G9 macrophage reporter cells (GFP-p65, Tnf promoter-mCherry). Reagent: siRNA pool against mouse genes, 100 nM. Timing: 2 days siRNA transfection, then 40 min LPS before fixation. Conditions: LPS (Salmonella minnesota R595) at 10 ng/ml. Detection: 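Microscopy ratio of nuclear to perinuclear-ring GFP-p65 signal, scaled to the plate median; gene score is the average of two replicate robust z-scores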. Reading the numbers: p65 translocation robust z-score: higher = more nuclear NF-kappaB p65 after LPS than the plate median; nuclear/cytoplasmic p65 ratio: higher = more nuclear NF-kappaB p65. Hit rule: 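Called active when z exceeds 3.3 or falls under -1.56 (median of Tlr4 controls), giving activity score of at least 50; no calls for control wells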. Meaning of the calls: active = hit (p65 shift raised or lowered); inactive = no clear change.
In all, the deposit lists about 17,000 reagents; below is a random part of them. 762 of all reagents (4.5%) were called active. 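Active calls include both raised and lowered p65 entry, mostly lowered; wells with fewer than 50 cells lack a z-score.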 The raw values are shown without normalisation. Entries without a mark were called inactive.

gene knocked down,p65 translocation robust z-score,"nuclear/cytoplasmic p65 ratio, rep 1","nuclear/cytoplasmic p65 ratio, rep 2",low cell count flag
Ear2,-2.77 (active),1.06,1.04,enough cells to score
Tmem145,-0.12,1.46,1.94,enough cells to score
Bfar,0.48,1.66,1.71,enough cells to score
Vmn1r198,,1.41,1.09,fewer than 50 cells per well; well left out of scoring
Rp2,1.69,1.91,1.62,enough cells to score
Chka,3.25,1.93,1.8,enough cells to score
Ctsf,-1.46,1.32,1.15,enough cells to score
Ccnd1,-0.09,1.45,1.37,enough cells to score
Hoxc4,1.62,1.67,1.57,enough cells to score
Zik1,0.27,1.42,1.31,enough cells to score
Cr1l,-0.53,1.48,1.72,enough cells to score
Rit2,-1.86 (active),1.28,1.23,enough cells to score
Ntan1,-0.39,1.73,1.41,enough cells to score
Ints1,0.86,1.66,1.57,enough cells to score
Atp6v1f,-0.31,1.6,1.53,enough cells to score
Lck,0.24,1.76,1.41,enough cells to score
Folh1,-1.33,1.29,1.22,enough cells to score
Asgr1,0.02,1.67,1.57,enough cells to score
Dusp23,,1.39,1.19,fewer than 50 cells per well; well left out of scoring
Arf4,0.76,1.45,2,enough cells to score
Hdac11,1.11,1.6,1.5,enough cells to score
Slmap,,1.81,1.4,fewer than 50 cells per well; well left out of scoring
Fah,1.21,1.56,1.58,enough cells to score
Acsm5,0,1.64,1.73,enough cells to score
Pou6f2,0.35,1.67,1.79,enough cells to score
Klhl12,-0.05,1.54,1.35,enough cells to score

Called active, of those listed so far:
gene knocked down,p65 translocation robust z-score,"nuclear/cytoplasmic p65 ratio, rep 1","nuclear/cytoplasmic p65 ratio, rep 2",low cell count flag
Ear2,-2.77 (active),1.06,1.04,enough cells to score
Rit2,-1.86 (active),1.28,1.23,enough cells to score

The results go on:
gene knocked down,p65 translocation robust z-score,"nuclear/cytoplasmic p65 ratio, rep 1","nuclear/cytoplasmic p65 ratio, rep 2",low cell count flag
Cep55,-0.95,1.41,1.3,enough cells to score
Tmem53,0.62,1.62,1.54,enough cells to score
Glt8d1,-1.63 (active),1.18,1.08,enough cells to score
Actr2,0.09,1.62,1.64,enough cells to score
Ap2m1,-0.47,1.47,1.68,enough cells to score
Hdac6,-0.24,1.33,1.41,enough cells to score
Tnnt1,-0.44,1.41,1.5,enough cells to score
Dnajb7,0.09,1.46,1.39,enough cells to score
Nr4a1,-0.49,1.4,1.33,enough cells to score
Tax1bp3,0.54,1.43,1.27,enough cells to score
Reck,0.25,1.44,1.66,enough cells to score
Doc2a,1.78,1.72,1.58,enough cells to score
Dsg3,0.14,1.72,1.38,enough cells to score
Mrgprg,-0.63,1.68,1.5,enough cells to score
Cyp2b13,-0.29,1.5,1.77,enough cells to score
Clic6,1.31,1.72,2.07,enough cells to score
Ppil1,0.97,1.61,1.56,enough cells to score
Azin1,-0.31,1.58,1.56,enough cells to score
Ppm1m,,1.24,1.09,fewer than 50 cells per well; well left out of scoring
Hbb-b1,1.01,1.87,1.62,enough cells to score
Mcm3ap,-1.66 (active),1.09,1.14,enough cells to score
Tfip11,,1.07,1.11,fewer than 50 cells per well; well left out of scoring
4930599N23Rik,,1.05,0.902,fewer than 50 cells per well; well left out of scoring
Zbtb11os1,,1.33,0.894,fewer than 50 cells per well; well left out of scoring
Styx,0.17,1.6,1.56,enough cells to score
Fam171b,0.7,1.65,1.56,enough cells to score
Cenpo,,1.31,1.28,fewer than 50 cells per well; well left out of scoring
Folr1,1.36,1.53,1.63,enough cells to score
Rbm43,1.42,1.7,1.68,enough cells to score
Igfbp7,-0.12,1.44,1.34,enough cells to score
Atxn7,-0.76,1.4,1.41,enough cells to score
Or5p81,1.25,1.67,1.37,enough cells to score
Ecrg4,-0.06,1.54,1.43,enough cells to score
Ercc1,-0.39,1.4,1.33,enough cells to score
Boll,,1.33,1.35,fewer than 50 cells per well; well left out of scoring
Tafa3,-1.51,1.17,1.02,enough cells to score
Daam2,0.61,1.62,1.38,enough cells to score
Prdx6,-0.42,1.42,1.37,enough cells to score
H2bc1,,1.63,1.51,fewer than 50 cells per well; well left out of scoring
Eef1g,-1.25,1.38,1.12,enough cells to score
Mid1,0.95,1.51,1.52,enough cells to score
Tmem135,,1.26,1.17,fewer than 50 cells per well; well left out of scoring
Nxpe4,-0.03,1.35,1.6,enough cells to score
Rap2c,0.7,1.5,1.27,enough cells to score
Or8c16,0.87,1.65,1.3,enough cells to score
Cfap68,0.15,1.45,1.58,enough cells to score
Wdr74,,1.16,1.04,fewer than 50 cells per well; well left out of scoring
Or8b3b,0.23,1.65,1.12,enough cells to score
Frmpd3,0.42,1.66,1.89,enough cells to score
